For one molecule, binding results are on record in paper doi:10.1101/2020.09.30.319939.

The target in the assay is T1, Slt2p-3HA (S. cerevisiae) (UniProt Q00772).
T1 sequence: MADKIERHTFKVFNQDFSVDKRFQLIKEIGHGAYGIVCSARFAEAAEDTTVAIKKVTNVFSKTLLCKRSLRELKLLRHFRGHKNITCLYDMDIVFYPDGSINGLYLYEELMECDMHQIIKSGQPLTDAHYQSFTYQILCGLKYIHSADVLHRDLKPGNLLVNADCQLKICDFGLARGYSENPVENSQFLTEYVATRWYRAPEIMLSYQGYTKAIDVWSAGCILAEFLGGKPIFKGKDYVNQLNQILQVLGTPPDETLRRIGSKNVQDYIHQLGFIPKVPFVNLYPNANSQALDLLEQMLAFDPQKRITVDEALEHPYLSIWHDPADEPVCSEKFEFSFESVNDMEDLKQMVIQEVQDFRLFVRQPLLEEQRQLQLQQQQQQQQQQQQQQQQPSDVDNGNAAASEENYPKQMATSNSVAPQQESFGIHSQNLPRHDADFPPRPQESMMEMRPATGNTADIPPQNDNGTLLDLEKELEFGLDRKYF
In words: co-IP.

No constants are given. Whether binding was seen depends on the method and setting. Binding seen in cells or lysates may run through a third protein. Some binding calls cover weakened binding; strength is not graded here.

B1: Rbp1p (endogenous) (protein, UniProt P32831 1-672)
chain: MMSNVANASQRQENPYIIPLPPSSTVETSTEPPRTLWMGDLDPSFDEATIEEIWSKLDKKVIVKLIRAKKNLLIPCSSTSSSNNNTSEENAENQQSASNSTDQLDNSQMININGISFIDPSTTQLHHAGYCFVEFETQKDAKFALSLNATPLPNFYSPTTNSQTNPTFKRTFRLNWASGATLQSSIPSTPEFSLFVGDLSPTATEADLLSLFQTRFKSVKTVRVMTDPLTGSSRCFGFVRFGDEDERRRALIEMSGKWFQGRALRVAYATPRNNMMLQLQEQQQQQQQLQQQHQQLDQEDNNGPLLIKTANNLIQNNSNMLPLNALHNAPPMHLNEGGISNMRVNDSLPSNTYNTDPTNTTVFVGGLVPKTTEFQLRSLFKPFGPILNVRIPNGKNCGFVKFEKRIDAEASIQGLQGFIVGGSPIRLSWGRPSSSNAKTNSTIMGASQYMSSNGLRAPSAASSVDNSKQILEQYAEDKRRLFLHQQQQQQQQQQQDGNFSMEQMAHNNYYNYNNYDYHRNKNGSHSDLVNLQRSNVPYMQEDGALYPHQYSSPSYSLHPTGNQFSNATNNLPQFGNAMSISMQLPNGNSNKTASSMNTNPNTNMIMNSNMNMNMNVNPVPYGMGNGANMYDVSRMMTPPLNIAPNSNNSKSSIMNKHPNRNNVPPIHPSLLH
B1: the binding result is reported as “binds”.
